From the supplement of paper PMC8256030
Values joined by “and” are separate entries in the source; they are usually repeats but may differ in a detail not shown here. Equal entries are not always repeated. This is one part of the list. This data set is noisy: repeats of one test often differ as much as different tests do.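 HEK293T cells were given each compound shortly before transfection with a reporter in which red mCherry is followed by the SARS-CoV-2 frameshift element and then GFP in the −1 frame, so GFP appears only after frameshifting.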

The compounds below were run on SARS-CoV-2 -1 PRF reporter mCherry-FSE-GFP(-1) (assay: percent effect, decrease of GFP/mCherry ratio (-1 PRF reporter) relative to controls; higher = stronger frameshift inhibition). Details: 10 µM; 24 h; HEK293T.

Structure (SMILES)	percent effect
Clc1ccc(CO/N=C(\Cn2ccnc2)c2ccc(Cl)cc2Cl)c(Cl)c1	-0.903%
O=C1N(c2ccccc2)c2ccccc2C1(Cc1ccncc1)Cc1ccncc1 [linopirdine]	-2.55%
C=COCC(F)(F)F [fluroxene]	-5.39%
NCCCC(O)(P(=O)(O)O)P(=O)(O)O	-2.71%
COc1cc([C@@H]2c3cc4c(cc3[C@@H](O[C@@H]3O[C@@H]5CO[C@@H](c6cccs6)O[C@H]5[C@H](O)[C@H]3O)[C@H]3COC(=O)[C@H]23)OCO4)cc(OC)c1O	-2.65%
C[C@]12CC[C@H]3[C@@H](CCC4=CC(=O)CC[C@@]43C)[C@@H]1CC[C@@H]2C(=O)CO [desoxycortone]	-2.53%
Cc1cc(/C=C/C#N)cc(C)c1Nc1ccnc(Nc2ccc(C#N)cc2)n1 [rilpivirine]	-9.83%
C[n+]1cc2c3c(ccc2c2ccc4cc5c(cc4c21)OCO5)OCO3	-0.394%
CN(CCCCCCCCCCN(C)C(=O)Oc1cccc([N+](C)(C)C)c1)C(=O)Oc1cccc([N+](C)(C)C)c1 [Humorsol]	-1.32%
NCCNC(=O)c1ccc(Cl)cn1 [lazabemide]	-10.5%
CC(=O)OCC(COC(C)=O)OC(C)=O [triacetin]	-8.88%
C[C@]12CCC(=O)C=C1C=C[C@@H]1[C@@H]2CC[C@@]2(C)[C@H]1CC[C@@]21CCC(=O)O1 [canrenone]	2.68%
CC1=C(/C=C/C(C)=C/C=C/C(C)=C/C=C/C=C(C)/C=C/C=C(C)/C=C/C2=C(C)C(=O)CCC2(C)C)C(C)(C)CCC1=O [Canthaxanthin]	-1.65%
CC[C@H](C)[C@H](NC(=O)[C@H](Cc1ccccc1)NC(=O)[C@H](C)NC(=O)[C@H](CC(=O)O)NC(=O)[C@H](CCCCN)NC(=O)[C@H](CO)NC(=O)[C@@H]1CCCN1C(=O)[C@@H]1CCC(=O)N1)C(=O)NCC(=O)N[C@@H](CC(C)C)C(=O)N[C@@H](CCSC)C(N)=O [eledoisin]	5.54%
NC(=O)[C@@H]1CCCN1C(=O)[C@H](Cc1c[nH]cn1)NC(=O)[C@@H]1CCC(=O)N1 [protirelin]	-12.2%
CCCCC1(COC(=O)CCC(=O)O)C(=O)N(c2ccccc2)N(c2ccccc2)C1=O [suxibuzone]	-0.947%
OC(c1cc(C(F)(F)F)nc2c(C(F)(F)F)cccc12)C1CCCCN1 (stereo not given) [mefloquine]	-1.33%
NC(=O)c1ccc([N+](=O)[O-])cc1Cl [aklomide]	0.458%
C#Cc1cccc(Nc2ncnc3cc(OCCOC)c(OCCOC)cc23)c1 [erlotinib]	-8.95%
Oc1ccc(Cl)c2c1CCC2 [clorindanol]	-6.61%

Looked up above:
Value of NCCCC(O)(P(=O)(O)O)P(=O)(O)O under percent effect: -2.71%
Value of NCCNC(=O)c1ccc(Cl)cn1 [lazabemide] under percent effect: -10.5%

(next part)

Structure (SMILES)	percent effect
CC[N+](C)(C)Cc1ccccc1Br [Bretylol]	-8.04%
CCN(CC)CCOC(=O)c1ccc(N)cc1 [procaine]	-0.458%
CO/N=C(\C(=O)N[C@@H]1C(=O)N2C(C(=O)O)=C(/C=C\c3scnc3C)CS[C@H]12)c1csc(N)n1 [Cefditoren]	-1.41%
C1CCN2C[C@H]3C[C@H](CN4CCCC[C@@H]34)[C@H]2C1	0.928%
CC[C@@H]1C(=O)OC[C@@H]1Cc1cncn1C	-5.24%
Cc1nc(-c2ccc(OCC(C)C)c(C#N)c2)sc1C(=O)O [febuxostat]	-0.936%
CC(C)(C)NCC(O)COc1cccc2c1C[C@H](O)[C@H](O)C2 (stereo not given in full)	1.03%
CCCCN1C[C@H](O)[C@@H](O)[C@H](O)[C@H]1CO [miglustat]	-5.82%
CC(Cc1ccccc1)NN (stereo not given) [pheniprazine]	-9.62%
COc1ccc(CC(C)NCC(O)c2ccc(O)c(NC=O)c2)cc1 (stereo not given) [formoterol]	-4.87% and -1.64%
CC1COc2c(N3CCN(C)CC3)c(F)cc3c(=O)c(C(=O)O)cn1c23 (stereo not given) [ofloxacin]	-3.16% and 1.8%
Nc1nc2c(ncn2COCCO)c(=O)[nH]1 [Acycloguanosine]	-7.51%
COC(=O)N/N=C/c1c[n+]([O-])c2ccccc2[n+]1[O-] [Carbadox]	-4.18%
O=C(Nc1ncc([N+](=O)[O-])s1)c1cccs1 [tenonitrozole]	-13.2%
COC(=O)Nc1nc2cc(OS(=O)(=O)c3ccc(F)cc3)ccc2[nH]1 [luxabendazole]	-13.8%
OC(CNC12CC3CC(CC(C3)C1)C2)COc1ccccc1 (stereo not given) [mantabegron]	2.06%
O=C([O-])c1ccccc1[O-].[Bi+3].[OH-]	-2.31%
c1ccc(Cn2c(N3CCNCC3)nc3ccccc32)cc1 [lerisetron]	-10.5%
CC(=O)Nc1ccc(OC(=O)c2ccccc2OC(C)=O)cc1 [benorilate]	0.0267%
O=C1O[C@H]([C@@H](O)CO)C(O)=C1O	-1.17%
